Assay results reported in article doi:10.1101/699223 (bioRxiv, 2019).
Where a chain is given by its changes, count along the chain named. Results are given in words; binding and its absence hold for the method and conditions named. Binding seen in cells or lysates may run through a third protein. Some entries that bind do so weakly or less than the wild type. Sequences can lack the tags named with a protein. Each block holds one binder with its values, some of them ahead of it.

How the values were obtained:
[1] = biological target: T1, human BBS2 L349W, c-Myc-tagged (human, UniProt Q9BXC9 1-721, L349W); test: co-IP
T1 sequence (looked up): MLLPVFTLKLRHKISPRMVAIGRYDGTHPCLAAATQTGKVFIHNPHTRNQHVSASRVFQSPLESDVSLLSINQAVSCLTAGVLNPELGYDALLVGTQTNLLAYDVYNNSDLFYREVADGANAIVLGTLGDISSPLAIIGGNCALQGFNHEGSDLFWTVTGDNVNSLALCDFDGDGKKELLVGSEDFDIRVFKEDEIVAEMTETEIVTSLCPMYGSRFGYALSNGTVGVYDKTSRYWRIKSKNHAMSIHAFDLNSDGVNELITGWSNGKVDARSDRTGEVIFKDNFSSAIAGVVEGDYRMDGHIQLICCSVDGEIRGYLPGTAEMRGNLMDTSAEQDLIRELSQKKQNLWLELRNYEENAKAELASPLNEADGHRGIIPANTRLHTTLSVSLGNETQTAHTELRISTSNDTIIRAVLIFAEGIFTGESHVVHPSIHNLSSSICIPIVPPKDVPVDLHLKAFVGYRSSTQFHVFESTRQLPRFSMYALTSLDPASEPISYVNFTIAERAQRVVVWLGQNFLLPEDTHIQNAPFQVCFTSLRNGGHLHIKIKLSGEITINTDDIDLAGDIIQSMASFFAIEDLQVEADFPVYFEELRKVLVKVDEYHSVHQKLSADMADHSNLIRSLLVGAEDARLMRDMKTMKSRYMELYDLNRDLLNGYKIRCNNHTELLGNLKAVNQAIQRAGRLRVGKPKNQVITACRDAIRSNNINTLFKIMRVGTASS

[2] = biological target: T2, human BBS2 R632P, c-Myc-tagged (human, UniProt Q9BXC9 1-721, R632P); test: co-IP
T2 sequence (looked up): T1 sequence (looked up) with W349L, R632P

binding [1]: binds
B1: human BBS9 (Bardet-Biedl syndrome protein 9), wild type, Flag-tagged (natural protein, UniProt Q3SYG4 1-887, looked up)
chain: MSLFKARDWWSTILGDKEEFDQGCLCLANVDNSGNGQDKIIVGSFMGYLRIFSPHPAKTGDGAQAEDLLLEVDLRDPVLQVEVGKFVSGTEMLHLAVLHSRKLCVYSVSGTLGNVEHGNQCQMKLMYEHNLQRTACNMTYGSFGGVKGRDLICIQSMDGMLMVFEQESYAFGRFLPGFLLPGPLAYSSRTDSFLTVSSCQQVESYKYQVLAFATDADKRQETEQQKLGSGKRLVVDWTLNIGEQALDICIVSFNQSASSVFVLGERNFFCLKDNGQIRFMKKLDWSPSCFLPYCSVSEGTINTLIGNHNNMLHIYQDVTLKWATQLPHIPVAVRVGCLHDLKGVIVTLSDDGHLQCSYLGTDPSLFQAPNVQSRELNYDELDVEMKELQKIIKDVNKSQGVWPMTEREDDLNVSVVVSPNFDSVSQATDVEVGTDLVPSVTVKVTLQNRVILQKAKLSVYVQPPLELTCDQFTFEFMTPDLTRTVSFSVYLKRSYTPSELEGNAVVSYSRPTDRNPDGIPRVIQCKFRLPLKLICLPGQPSKTASHKITIDTNKSPVSLLSLFPGFASQSDDDQVNVMGFHFLGGARITVLASKTSQRYRIQSEQFEDLWLITNELILRLQEYFEKQGVKDFACSFSGSIPLQEYFELIDHHFELRINGEKLEELLSERAVQFRAIQRRLLARFKDKTPAPLQHLDTLLDGTYKQVIALADAVEENQGNLFQSFTRLKSATHLVILLIALWQKLSADQVAILEAAFLPLQEDTQELGWEETVDAAISHLLKTCLSKSSKEQALNLNSQLNIPKDTSQLKKHITLLCDRLSKGGRLCLSTDAAAPQTMVMPGGCTTIPESDLEERSVEQDSTELFTNHRHLTAETPRPEVSPLQGVSE

binding [2]: binds
B2: human BBS7 (Bardet-Biedl syndrome protein 7), wild type, Flag-Strep-tagged (natural protein, UniProt Q8IWZ6 1-715, looked up)
chain: MDLILNRMDYLQVGVTSQKTMKLIPASRHRATQKVVIGDHDGVVMCFGMKKGEAAAVFKTLPGPKIARLELGGVINTPQEKIFIAAASEIRGFTKRGKQFLSFETNLTESIKAMHISGSDLFLSASYIYNHYCDCKDQHYYLSGDKINDVICLPVERLSRITPVLACQDRVLRVLQGSDVMYAVEVPGPPTVLALHNGNGGDSGEDLLFGTSDGKLALIQITTSKPVRKWEIQNEKKRGGILCIDSFDIVGDGVKDLLVGRDDGMVEVYSFDNANEPVLRFDQMLSESVTSIQGGCVGKDSYDEIVVSTYSGWVTGLTTEPIHKESGPGEELKINQEMQNKISSLRNELEHLQYKVLQERENYQQSSQSSKAKSAVPSFGINDKFTLNKDDASYSLILEVQTAIDNVLIQSDVPIDLLDVDKNSAVVSFSSCDSESNDNFLLATYRCQADTTRLELKIRSIEGQYGTLQAYVTPRIQPKTCQVRQYHIKPLSLHQRTHFIDHDRPMNTLTLTGQFSFAEVHSWVVFCLPEVPEKPPAGECVTFYFQNTFLDTQLESTYRKGEGVFKSDNISTISILKDVLSKEATKRKINLNISYEINEVSVKHTLKLIHPKLEYQLLLAKKVQLIDALKELQIHEGNTNFLIPEYHCILEEADHLQEEYKKQPAHLERLYGMITDLFIDKFKFKGTNVKTKVPLLLEILDSYDQNALISFFDAA
